Data on three sequences can be found in publication PMC3652857.

Chains of the proteins cited; added tags and fusions are not shown. A line that says so, or that is headed by a name, gives the form on record, which may keep a tag or linker.
UniProt P39748, whole entry: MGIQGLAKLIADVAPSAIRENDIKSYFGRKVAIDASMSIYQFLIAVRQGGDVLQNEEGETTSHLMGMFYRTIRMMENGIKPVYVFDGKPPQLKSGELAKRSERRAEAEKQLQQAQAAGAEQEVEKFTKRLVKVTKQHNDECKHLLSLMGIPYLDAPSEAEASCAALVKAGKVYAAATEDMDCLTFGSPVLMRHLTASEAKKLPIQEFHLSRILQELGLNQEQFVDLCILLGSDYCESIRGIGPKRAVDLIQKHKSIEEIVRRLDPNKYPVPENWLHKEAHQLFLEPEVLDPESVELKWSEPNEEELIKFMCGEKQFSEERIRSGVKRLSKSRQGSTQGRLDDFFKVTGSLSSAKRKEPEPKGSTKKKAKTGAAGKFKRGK
UniProt P39748, whole entry D181A: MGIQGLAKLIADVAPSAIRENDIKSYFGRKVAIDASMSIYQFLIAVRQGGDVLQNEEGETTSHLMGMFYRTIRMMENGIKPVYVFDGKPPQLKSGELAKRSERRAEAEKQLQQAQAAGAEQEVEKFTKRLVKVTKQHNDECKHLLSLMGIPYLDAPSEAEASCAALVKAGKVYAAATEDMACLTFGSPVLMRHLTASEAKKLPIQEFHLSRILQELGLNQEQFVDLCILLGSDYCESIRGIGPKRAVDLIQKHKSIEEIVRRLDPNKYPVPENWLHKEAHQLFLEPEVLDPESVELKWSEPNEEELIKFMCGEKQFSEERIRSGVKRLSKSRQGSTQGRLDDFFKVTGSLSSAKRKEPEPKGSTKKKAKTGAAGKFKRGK
FENMIT (human), one chain, as listed by the source: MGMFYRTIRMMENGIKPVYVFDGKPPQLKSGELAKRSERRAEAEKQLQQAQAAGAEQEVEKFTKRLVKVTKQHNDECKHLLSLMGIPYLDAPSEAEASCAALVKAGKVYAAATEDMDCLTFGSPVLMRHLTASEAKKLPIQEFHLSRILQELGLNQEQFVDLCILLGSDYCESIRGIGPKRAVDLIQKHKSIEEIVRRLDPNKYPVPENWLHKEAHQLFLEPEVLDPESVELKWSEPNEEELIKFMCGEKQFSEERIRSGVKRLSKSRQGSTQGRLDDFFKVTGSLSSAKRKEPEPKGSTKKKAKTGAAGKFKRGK

Series [1] relates to FENMIT (human). As to the kind of experiment: EMSA. Conditions: 25 mM Tris pH 8.0, 1 mM DTT, 0.1 mg/ml BSA, 6% glycerol; 0.2 nM 32P substrate; 1 h on ice; 10% native PAGE in tris-borate; recombinant protein; residues 1-316; protein details: His; label: 5'-32P on RNA44.
Series [2] concerns the target FEN1 (FEN1-1.His) (human) (UniProt P39748). Description: EMSA. The following applies: 1 and 5 nM protein; 25 mM Tris pH 8.0, 1 mM DTT, 0.1 mg/ml BSA, 6% glycerol; 0.2 nM 32P substrate; 1 h on ice; 10% native PAGE in tris-borate; recombinant protein; residues 1-380; protein details: His; label: 5'-32P on RNA44. (In general: A gel shift assay detects complexes by their altered migration in electrophoresis.)

The target in a further series is FEN1 D181A (human) (UniProt P39748). Description: EMSA. The following applies: 1 and 5 nM protein; 25 mM Tris pH 8.0, 1 mM DTT, 0.1 mg/ml BSA, 6% glycerol; 0.2 nM 32P substrate; 1 h on ice; 10% native PAGE in tris-borate; recombinant protein; residues 1-380; protein details: His; label: 5'-32P on RNA44.
For series [3], the system named is FENMIT (human). As to the kind of experiment: competition with a labelled probe. Conditions: 25 nM FENMIT, cold RNA44 0-5 nM; 25 mM Tris pH 8.0, 1 mM DTT, 0.1 mg/ml BSA, 6% glycerol; 0.2 nM 32P substrate; 1 h on ice; 10% native PAGE in tris-borate; recombinant protein; residues 1-316; protein details: His; label: 5'-32P on RNA44; scale: fold more cold RNA44 for half competition than labeled ssRNA needs.

For some of these results: A weaker result is weaker than the reference pair of the same experiment. For some of these results: For at least one entry, the source does not settle the construct or the ends of the probe. For some of these results: The direction of at least one scale is not stated here.

In the case of “AGCCTGCCATTTGATGGTCGTAGGACATTCTTTGCCCACGTTGA / AGACCATCAAATGGCAGGCT / UCAACGUGGGCAAAGAAUGUCCUACGUCCGAUACGGAUAAUCGC [T5:U5:RNA44* 3' RNA flap]”, the binding result with FENMIT (human) [1] was “binds more weakly”.

Regarding “GCGATTATCCGTATCGGACGTAGGAAGCCTGCCATTTGATGGTC / GACCATCAAATGGCAGGCTG / UCAACGUGGGCAAAGAAUGUCCUACGUCCGAUACGGAUAAUCGC [T2:U2:RNA44* 5' RNA flap]”, the binding result (in series [2]; with FEN1 D181A (human)) was “binds more weakly” in each case.

In the case of “GCGATTATCCGTATCGGACGTAGGAAGCCTGCCATTTGATGGTC / GACCATCAAATGGCAGGCTGAACGAACAAAGCGAAAGCG / UCAACGUGGGCAAAGAAUGUCCUACGUCCGAUACGGAUAAUCGC [U3:T2:RNA44* 5' RNA flap with 20 nt 3' flap]”, the binding signal in the series on FENMIT (human) [3] stood at 3.
